Assay [1] concerns the target HA-tagged RNF111 SIMs mutant (RNF111^SIM*) (UniProt Q6ZNA4). Put plainly: co-IP; Flag/HA beads or antibodies on Protein A/G beads with lysates of 293T or U2OS cells in modified NETN buffer (20 mM Tris-HCl pH 7.6, 95 mM NaCl, 1 mM EDTA, 0.5% Nonidet P-40), 4 °C overnight, blot; Fig. 6j with or without the CK2 inhibitor TBB.
Assay [2] deals with HA-ARKL1 SIM mutant (HA-ARKL1^SIM*) (UniProt Q96B23). The experiment in a line: proximity ligation; Duolink PLA on fixed and permeabilised cells (U2OS WT or KO cells complemented with the named constructs; Fig. 4d and 5b in cells expressing GFP-PML).
For assay [3], the target named is ARKL1 serine-rich region deletion mutant (ARKL1^∆S) (UniProt Q96B23). Put plainly: co-IP; Flag/HA beads or antibodies on Protein A/G beads with lysates of 293T or U2OS cells in modified NETN buffer (20 mM Tris-HCl pH 7.6, 95 mM NaCl, 1 mM EDTA, 0.5% Nonidet P-40), 4 °C overnight, blot; Fig. 6j with or without the CK2 inhibitor TBB.

Amino acid sequences for entries named in this document (tags omitted). A change or cut given only in a name is not applied to a line headed by its entry.
UniProt Q96B23: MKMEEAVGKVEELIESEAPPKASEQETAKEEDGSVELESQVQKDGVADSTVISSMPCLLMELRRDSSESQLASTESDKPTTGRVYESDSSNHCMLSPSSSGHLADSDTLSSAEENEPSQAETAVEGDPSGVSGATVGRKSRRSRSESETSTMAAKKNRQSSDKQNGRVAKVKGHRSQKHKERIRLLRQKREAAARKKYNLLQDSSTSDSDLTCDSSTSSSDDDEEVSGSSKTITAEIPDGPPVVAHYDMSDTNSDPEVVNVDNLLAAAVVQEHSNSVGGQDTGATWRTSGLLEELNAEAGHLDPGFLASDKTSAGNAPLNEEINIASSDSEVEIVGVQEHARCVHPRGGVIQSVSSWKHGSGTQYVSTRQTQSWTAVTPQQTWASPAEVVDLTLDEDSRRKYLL
UniProt P54132: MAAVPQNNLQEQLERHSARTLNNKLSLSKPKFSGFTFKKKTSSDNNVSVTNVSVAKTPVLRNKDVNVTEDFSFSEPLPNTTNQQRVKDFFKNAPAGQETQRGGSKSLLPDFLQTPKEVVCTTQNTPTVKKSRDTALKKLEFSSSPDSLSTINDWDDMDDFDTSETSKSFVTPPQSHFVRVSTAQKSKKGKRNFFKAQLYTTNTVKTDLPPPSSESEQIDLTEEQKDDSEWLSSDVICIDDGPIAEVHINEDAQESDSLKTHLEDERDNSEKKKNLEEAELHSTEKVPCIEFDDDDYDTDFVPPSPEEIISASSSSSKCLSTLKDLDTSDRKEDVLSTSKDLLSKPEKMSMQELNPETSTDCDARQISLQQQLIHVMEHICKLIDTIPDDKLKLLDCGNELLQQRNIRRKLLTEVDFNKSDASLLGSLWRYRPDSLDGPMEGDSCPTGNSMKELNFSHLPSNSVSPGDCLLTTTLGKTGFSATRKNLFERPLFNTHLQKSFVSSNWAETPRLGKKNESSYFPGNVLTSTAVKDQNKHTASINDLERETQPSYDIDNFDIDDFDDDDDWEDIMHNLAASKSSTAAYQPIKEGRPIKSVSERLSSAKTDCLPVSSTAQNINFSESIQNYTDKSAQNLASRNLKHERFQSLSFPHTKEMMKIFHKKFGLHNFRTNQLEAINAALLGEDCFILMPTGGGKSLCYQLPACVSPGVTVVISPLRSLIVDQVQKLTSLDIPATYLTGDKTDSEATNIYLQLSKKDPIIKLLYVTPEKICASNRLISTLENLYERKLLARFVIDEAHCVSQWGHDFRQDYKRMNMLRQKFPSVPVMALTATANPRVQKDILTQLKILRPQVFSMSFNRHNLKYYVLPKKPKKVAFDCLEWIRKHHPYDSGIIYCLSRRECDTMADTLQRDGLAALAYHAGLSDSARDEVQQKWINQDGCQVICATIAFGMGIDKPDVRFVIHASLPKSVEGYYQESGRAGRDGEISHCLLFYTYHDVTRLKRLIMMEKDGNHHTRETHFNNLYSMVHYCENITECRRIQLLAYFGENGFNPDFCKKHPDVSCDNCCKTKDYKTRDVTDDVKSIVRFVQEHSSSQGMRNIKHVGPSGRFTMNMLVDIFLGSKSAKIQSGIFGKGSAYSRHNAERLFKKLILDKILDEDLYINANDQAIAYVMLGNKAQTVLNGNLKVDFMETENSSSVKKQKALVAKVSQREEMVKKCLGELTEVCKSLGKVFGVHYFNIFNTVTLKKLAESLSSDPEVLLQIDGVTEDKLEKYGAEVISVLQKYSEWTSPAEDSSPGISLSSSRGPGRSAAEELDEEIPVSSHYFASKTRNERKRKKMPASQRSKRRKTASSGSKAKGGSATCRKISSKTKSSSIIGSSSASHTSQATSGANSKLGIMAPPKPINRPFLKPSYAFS

No constants are given. Whether binding was seen depends on the method and setting. Binding seen in cells or lysates may run through a third protein. Binding can be weak; no strength is given.

Consider “Bloom syndrome helicase (BLM) (from UniProt P54132 1-1417)”, for which the binding entry in assay [1] is recorded as “binds”.

B1: RNF111 (Arkadia) (protein, UniProt Q6ZNA4 1-994)
chain: MSQWTPEYNELYTLKVDMKSEIPSDAPKTQESLKGILLHPEPIGAAKSFPAGVEMINSKVGNEFSHLCDDSQKQEKEMNGNQQEQEKSLVVRKKRKSQQAGPSYVQNCVKENQGILGLRQHLGTPSDEDNDSSFSDCLSSPSSSLHFGDSDTVTSDEDKEVSVRHSQTILNAKSRSHSARSHKWPRTETESVSGLLMKRPCLHGSSLRRLPCRKRFVKNNSSQRTQKQKERILMQRKKREVLARRKYALLPSSSSSSENDLSSESSSSSSTEGEEDLFVSASENHQNNPAVPSGSIDEDVVVIEASSTPQVTANEEINVTSTDSEVEIVTVGESYRSRSTLGHSRSHWSQGSSSHASRPQEPRNRSRISTVIQPLRQNAAEVVDLTVDEDEPTVVPTTSARMESQATSASINNSNPSTSEQASDTASAVTSSQPSTVSETSATLTSNSTTGTSIGDDSRRTTSSAVTETGPPAMPRLPSCCPQHSPCGGSSQNHHALGHPHTSCFQQHGHHFQHHHHHHHTPHPAVPVSPSFSDPACPVERPPQVQAPCGANSSSGTSYHEQQALPVDLSNSGIRSHGSGSFHGASAFDPCCPVSSSRAAIFGHQAAAAAPSQPLSSIDGYGSSMVAQPQPQPPPQPSLSSCRHYMPPPYASLTRPLHHQASACPHSHGNPPPQTQPPPQVDYVIPHPVHAFHSQISSHATSHPVAPPPPTHLASTAAPIPQHLPPTHQPISHHIPATAPPAQRLHPHEVMQRMEVQRRRMMQHPTRAHERPPPHPHRMHPNYGHGHHIHVPQTMSSHPRQAPERSAWELGIEAGVTAATYTPGALHPHLAHYHAPPRLHHLQLGALPLMVPDMAGYPHIRYISSGLDGTSFRGPFRGNFEELIHLEERLGNVNRGASQGTIERCTYPHKYKKVTTDWFSQRKLHCKQDGEEGTEEDTEEKCTICLSILEEGEDVRRLPCMHLFHQVCVDQWLITNKKCPICRVDIEAQLPSES
B1: the results for the binding entry in assay [2] and in assay [3] were “binds weakly” and “binds”, respectively.
